According to PubChem BioAssay AID1794844 (National Center for Advancing Translational Sciences (NCATS), 2023):
The campaign covered roughly 2,800 compounds. Fewer than 10 were called active. Roughly 7% stayed inconclusive and do not appear here. The call rests on the fitted dose curve; in most records, active means well fitted inhibition curve with a large enough effect; inconclusive means small, poorly fitted or top-dose-only effect; inactive means no such curve, though single readings can be large or run the other way. This is one part of the list.

Chains of the proteins cited; added tags and fusions are not shown. Lines headed by an entry give the natural chain unless they say otherwise; changes in a name come on top.
UniProt C7C422: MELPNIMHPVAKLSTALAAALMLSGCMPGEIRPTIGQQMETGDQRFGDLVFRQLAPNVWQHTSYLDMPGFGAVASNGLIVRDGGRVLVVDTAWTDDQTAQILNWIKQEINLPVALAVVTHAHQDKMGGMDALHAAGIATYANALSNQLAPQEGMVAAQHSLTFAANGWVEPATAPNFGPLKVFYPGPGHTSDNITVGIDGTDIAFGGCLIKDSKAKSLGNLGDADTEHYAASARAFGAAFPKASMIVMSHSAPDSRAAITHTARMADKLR

Each molecule was assayed against Metallo-beta-lactamase type 2 (Klebsiella pneumoniae) (UniProt C7C422) (assay: qHTS to identify inhibitors of the New Delhi Metallo-beta-lactamase (NDM): Nitrocefin screen against the machine-based learning selections.). Conditions: NDM-1 enzyme, nitrocefin hydrolysis, absorbance 485 nm; activity, negative = inhibition: at the top concentration.
From the text: Assay Submitter (PI): James Inglese Ph.D., Patricia Dranchak Ph.D., Mahesh Aitha Ph.D. Assay Development and Screening Technology Laboratory (ADST) National Center for Advancing Translational Sciences (NCATS), Rockville, MD National Institute of Health (NIH), Bethesda, Maryland The metallo-beta-lactamases (MBL) are a main antibiotic resistance mechanism evolved by bacteria. There is an urgent clinical need for MBL inhibitors to mitigate this growing threat. To support a machine-based learning study, qHTS has been used to experimentally test inhibitors identified by prediction tools.
PROTOCOL TABLE (as described by Inglese et al., 2007) SEQUENCE No. (e.g., 1, 2, 3, etc.); […] (e.g., enzyme, Incubation, Reagent, etc.); VALUE; DESCRIPTION Primary Screen 1; NDM-1; 4 uL of 3 nM enzyme [2 nM final] in 50 mM HEPES (pH 7.0), 1 uM […], 0.01% Tween20; Use BioRaptr to dispense into two sets of Aurora black, clear bottom high base 1536-well plates 2; Compounds; 23 nL; Use Pin Tool (Wako) to transfer DMSO control and library compounds in DMSO 3; Incubate; >30 min 4a; Reagent; 2 uL of 50 uM nitrocefin [16.7 uM final] to one set of assay plates 4b; Reagent; 2 uL of 150 uM meropenem [50 uM final] to second set of assay plates 5a; Incubate; 15 min 5b; Incubate; 30 min 6a; Detector; Absorbance at 485 nm (bandwidth = 5 nm, 25 flashes/well) on Tecan Infinity 6b; Detector; Absorbance at 300 nm (bandwidth = 5 nm, 25 flashes/well) on Tecan Infinity NOTES (numbers refer to sequence above) 1; Column 1 of each plate received assay buffer without enzyme and columns 2-48 received enzyme for a final assay concentration of 2 nM. 2; Control plate contained DMSO in columns 1, 2, 3, and 4. 3; Compound interaction with enzyme. 4; Nitrocefin and meropenem substrates were prepared in the same assay buffer as step 1 for a final assay concentration of 16.7 uM and 50 uM, respectively, and added to all wells across respective sets of assay plates. 5; Default reader settings were applied for absorbance read at 485 nm (nitrocefin) or 300 nm (meropenem), bandwidth = 5 nm, 25 flashes/well. References: Inglese J, Shamu CE, Guy RK. 2007. Reporting data from high-throughput screening of small-molecule libraries. Nat Chem Biol. doi:10.1038/nchembio0807-438 Yasgar A, Shinn P, Jadhav A, Auld D, Michael S, Zheng W, Austin CP, Inglese J, Simeonov A. 2008. Compound Management for Quantitative High-Throughput Screening. J Lab Autom 13:79 - 89. doi:10.1016/j.jala.2007.12.004
Further: % of control where 0% means no effect.

activity, negative = inhibition, inactive:
O=C(Nc1cccs1)O[C@H]1COCCN(c2nc3ccccc3o2)C1 -1.23% [at 57.5 µM]
CC[C@H]1CN(C(=O)C(C)(C)C)CC[C@H]1CC(=O)NCc1cccnc1 4.25% [at 57.5 µM]
Fc1ccc(CN2CC[C@H](c3nc4cc(Cl)ccc4o3)C2)cc1F 2.43% [at 57.5 µM]
CCN(Cc1nc(C)no1)C(=O)c1cc(COc2ccccc2F)[nH]n1 -1.16%
Cc1noc(C)c1CCC(=O)N1CCN(Cc2ccccc2)CC(O)C1 (stereo not given) -4.75%
CCC(=O)N(C1CCOCC1)C1CCN(S(=O)(=O)c2ccc(C)cc2C)CC1 5.91%
CC(C)c1noc(CN(C)C(=O)CC2C(=O)NCCN2Cc2ccoc2)n1 (stereo not given) 1.66%
CN1CCN(c2ccc(C(=O)N[C@H](c3ccccn3)C3CC(O)C3)cc2)CC1 (stereo not given in full) -4%
Cc1nn(CCC#N)c(C)c1[C@@H]1C=C[C@@H](NC(=O)Nc2ccc(Cl)cc2)C1 -9.39% [at 57.5 µM]
CCCNC(=O)NC[C@H]1O[C@@H]2C[C@@H](CC(=O)N3CCC(F)(F)C3)O[C@@H]2[C@@H]1O 3.53% [at 57.5 µM]
CCO[C@H]1CN(C(=O)c2cccnc2SCCc2ccccc2)C[C@@H]1O 72.9%
COCCNS(=O)(=O)c1cc(C(=O)O)cc(-c2ccc(OC)c(F)c2)c1 -0.8%
CN(Cc1ccccc1)Cc1cc(CC2(NCc3cccs3)COC2)no1 -7.06% [at 57.5 µM]
CC1CCC(NC(=O)C2CCN(C(=O)c3ncn4c3COC(c3ccc(Cl)cc3)C4)CC2)CC1 (stereo not given) -2.86%
COCCN1CCCC2(CCN(C(=O)c3ccccc3)C2)C1 (stereo not given) -3.5%
COc1ccc(Cl)cc1-c1ccc2c(c1)C(=O)N1CCN(C(=O)c3ccc(N(C)C)cc3)C[C@@H]1C(=O)N2 -0.119%
COc1ccc(C(=O)N2CCC(c3nn(-c4ccccc4)c(=O)[nH]3)CC2)cc1 3.64%
COCCNC(=O)c1ccc(OC2CCN(S(C)(=O)=O)CC2)c(Cl)c1 2.62%
CCn1ccc(C(=O)N2CC(c3nnc(-c4ccc(C)cc4)o3)C3(CCOCC3)C2)n1 (stereo not given) 5.1%
Cc1nnnn1CC(=O)NCc1cccnc1N(C)CCc1ccccn1 -1.64%
COc1cccc(Nc2cc3c(cn2)CN(Cc2ccncc2)CCN3)c1 5% [at 57.5 µM]
CC(C)C(=O)Nc1ccc([C@H]2OCC(=O)N(Cc3ccccc3)[C@@H]2CO)cc1 -3.52% [at 57.5 µM]
OC(c1cccc(C(F)(F)F)c1)c1nc(Nc2ccncc2)n[nH]1 (stereo not given) 4.24% [at 57.5 µM]
O=C(Cc1c[nH]c2ncc(-c3cccnc3)cc12)NCCc1ccccc1 -26.8% [at 57.5 µM]
CC1(C(=O)NCCc2ccccn2)CCc2cnc(NCc3ccccc3)nc21 (stereo not given) -0.0818% [at 57.5 µM]
CC(C)(O)CCc1ccc(C(=O)NCCSc2ccccn2)cc1 0.0009%
O=C(Cc1ccccc1Cl)N1CCC(Cc2nc(-c3ccc(F)cc3)no2)CC1 0.542%
CCNc1ncc(C(=O)NC2CC(c3nnc(CO)n3CC)C2)cn1 (stereo not given) -0.945%
OC[C@]12CCCN[C@@H]1CCN(Cc1cccc(-c3ccccn3)c1)C2 -8.88%
CN1[C@@H](CCC(=O)N2CCN(c3ccccc3)CC2)CNC(=O)[C@@H]2[C@H]1CCN2Cc1cccc(Cl)c1 -0.988%
C[C@@H](NC(=O)Cc1ccccc1)c1onc(-c2ccc(Cl)cc2)c1C(=O)O -9.11% [at 57.5 µM]
NC(=O)c1cccc(-c2n[nH]c3c2CC(=O)N(CC2CCOCC2)C3)c1 -9.85% [at 57.5 µM]
COc1ccccc1-c1cnc(Nc2cccc(N[S+](C)(=O)[O-])c2)c2c1CCO2 -2.84% [at 57.5 µM]
COc1ccc(C(=O)N2CC[C@@H](CC(=O)O)[C@@H](CCN3C[C@@H]4C[C@H](C3)c3cccc(=O)n3C4)C2)cc1 -12.6%
COc1ccc(NC(=O)O[C@@H]2CC[C@]3(C)C(CC[C@@H](O)[C@H]3CC(=O)NCc3ccc4c(c3)OCO4)[C@]2(C)CO)cc1 (stereo not given in full) -2.57%
C=CCN1CC2(CCC1=O)CCN(CC1CCCS(=O)(=O)C1)CC2 (stereo not given) -5.44%
O=c1cc(-c2ccccn2)oc2c(NCc3ccccc3)nccc12 5.89% [at 57.5 µM]
C[C@H]1[C@@H]2[C@@H](O)[C@H]([C@H](C)C(=O)N3CCCC3)CC[C@@]2(C)CC[C@@H]1NC(=O)CC(C)(C)C -4.1% [at 57.5 µM]
OCC1(Cc2ccc(F)cc2F)CCCN(c2cnc3ccccc3n2)C1 (stereo not given) -5.51%
CC(C)c1nnc(C2CN(C(=O)c3ccc(F)c(F)c3)CC23CCOCC3)o1 (stereo not given) -3%
CN[C@@H](CC(C)C)C(=O)N[C@H]1C[C@@](O)(C(=O)N[C@H](Cc2c[nH]c3ccccc23)C(N)=O)C[C@@H](O)[C@@H]1O -4.28%
CC1(CNC(=O)c2ccc3c(c2)OCO3)CCOCC1 1.78%
O=C(OCc1ccccc1)N1CCC2(C1)C(=NC1CCCC1)NC(=O)N2c1cccnc1 (stereo not given) 6.13%
Cc1ccccc1C(=O)N1CCCN(c2cc(-c3ccc(Cl)cc3)[nH]n2)CC1 0.61%
O=C(NCCc1ccccc1)C1CC(=O)N(c2n[nH]c3cccc(F)c23)C1 (stereo not given) 0.403%
COCCNC(=O)C[C@@H]1C[C@H]2O[C@H](CNC3CCCCC3)[C@@H](O)[C@H]2O1 0.534% [at 57.5 µM]
Cc1ccsc1-c1[nH]nc2ncc(-c3ccc(CO)cc3)nc12 -2.91% [at 57.5 µM]
N#Cc1cccc(CN2CCC[C@H]2c2nc(-c3ccc(OC4CCCCC4)nc3)no2)c1 -4.25% [at 57.5 µM]
O[C@@H]1C[C@@H](c2nnc3n2CCN(Cc2ccccc2)C3)N(Cc2ccccc2)C1 -2.71%
Cc1ccc(-c2cc(O)c3c(c2)CNCCO3)cc1 -2.39%
COc1ccc(C(=O)N[C@H]2CO[C@H]3[C@@H]2OC[C@@H]3n2nnnc2-c2cccc(OC)c2)cc1 -3.19%
O=C(Cc1noc2ccccc12)N[C@@H]1COCC[C@@H]1OCc1ccccn1 -3.82%
C=CCn1cc2c3c(cccc31)[C@H](CC(C)C)N[C@H](C(=O)N1CCOCC1)C2 7.68% [at 57.5 µM]
Cc1nn(Cc2ccccc2)c(C)c1[C@@H]1C=C[C@@H](NC(=O)NC2CCCCC2)C1 -11.6% [at 57.5 µM]
CCCN1CC2(CCN(C(=O)c3ccc(C)nc3)CC2)CC1C(=O)O (stereo not given) -5.46%
COCC(=O)N1CCCc2nc(C)nc(-c3ccc(O)cc3)c2C1 1.22% [at 57.5 µM]
C[S+](=O)([O-])CCn1ncc2cc(OCc3cccc(-c4cccc(O)c4)c3)ccc21 -9.78% [at 57.5 µM]
COC(=O)[C@H](CC1CCCCC1)NC(=O)[C@H]1CN(C(=O)c2cccc(F)c2)CCN1C(C)=O -8.77%
CC(C)CC(=O)N1CCN(c2nnc3ccccn23)CC1 9.22%
COc1cccc(Nc2n[nH]c(C(O)c3cccc(C(F)(F)F)c3)n2)c1 (stereo not given) -5.53% [at 57.5 µM]

Quoted at random: four records from the list.
activity, negative = inhibition, inactive:
COCCNC(=O)C[C@@H]1C[C@H]2O[C@H](CNC3CCCCC3)[C@@H](O)[C@H]2O1 0.534% [at 57.5 µM]
Cc1noc(C)c1CCC(=O)N1CCN(Cc2ccccc2)CC(O)C1 (stereo not given) -4.75%
COc1ccc(Cl)cc1-c1ccc2c(c1)C(=O)N1CCN(C(=O)c3ccc(N(C)C)cc3)C[C@@H]1C(=O)N2 -0.119%
COc1ccccc1-c1cnc(Nc2cccc(N[S+](C)(=O)[O-])c2)c2c1CCO2 -2.84% [at 57.5 µM]
